Reference: PubChem BioAssay AID504467 (National Center for Advancing Translational Sciences (NCATS), 2011)
The whole screen tested about 330,000 compounds, of which about 7,700 (2.3%) were called active. This list was built around the results that the source calls inconclusive (neither active nor inactive); the mix of calls is not that of the screen. The call rests on the fitted dose curve; in most records, active means well fitted inhibition curve with a large enough effect; inconclusive means small, poorly fitted or top-dose-only effect, or effect the other way; inactive means flat fitted curve, though single readings scatter. Where the call is inconclusive, the potency comes from a doubtful curve fit.

Assay: qHTS screen for small molecules that inhibit ELG1-dependent DNA repair in human embryonic kidney (HEK293T) cells expressing luciferase-tagged ELG1; further: nearly all actives have a fitted effect of over 55% in size
Settings: HEK293T ELG1-luciferase reporter, luminescence, 16 h, DNA damage induced by 5-fluorouridine; activity change, negative = inhibition: at 46.1 µM (top of the series)
Method in brief: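 Luminescence from the luciferase reporter, measured 30 min after ONE-Glo reagent at room temperature, was the read-out. Beforehand, 2,000 cells per well were exposed for 16 hr at 37 °C to 5-fluorouridine together with compound or vehicle.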
On the % scale 0 is the no-effect control and ±100 the full control effect; potency means the concentration at half of the fitted maximal effect.

Row | Structure (SMILES) | activity change, negative = inhibition | Potency
1 | CC(C)NC(=O)c1onc(CSc2ccccc2)c1C(=O)O | inactive: -5.71% | 
2 | CN(C(=O)COC(=O)c1ccc(S(=O)(=O)N2CCOCC2)cc1)c1ccccc1 | inactive: 16.5% | 
3 | CC(C)N(Cc1c(O)ccc2c(=O)c(-c3ccc(Cl)cc3)coc12)C(C)C | inactive: -47.6% | 
4 | Nc1n[nH]c(=S)n1-c1ccc(Cl)cc1 | inactive: 0% | 
5 | Cc1ccccc1OCc1nnc(SCC(=O)Nc2ccc(N3CCOCC3)cc2)n1C |  | inconclusive: 16.4 µM [activator, single point]
6 | CCOc1ccc2c(O)csc2c1 | inactive: 8.12% | 
7 | O=C(c1cccs1)N1CCN(C(=O)c2cn(-c3ccccc3)nc2-c2ccccc2)CC1 |  | inconclusive: 29.1 µM [inhibitor, single point]
8 | Cc1cccc(C)c1NC(=O)c1cc(-c2ccccn2)nc2ccccc12 |  | inconclusive: 18.3 µM [inhibitor, single point]
9 | Cc1oc2c(cc(NS(=O)(=O)c3ccc(F)cc3)c3ccccc32)c1C(=O)O | inactive: -7.77% | 
10 | COC(=O)c1c(-c2ccc(N(C)C)cc2)sc2ccc(OC)cc12 |  | inconclusive: 5.8 µM [activator, full curve]
11 | O=C(CN1CCN(c2ccccc2)CC1)Nc1ccccc1C(F)(F)F | inactive: -11.2% | 
12 | O=C(COC(=O)c1ccccc1Br)NCC1CCCCC1 |  | inconclusive: 16.4 µM [activator, single point]
13 | CCOC(=O)c1ccc(NC(=O)C(=O)NCCc2ccc(OC)cc2)cc1 | inactive: 9.72% | 
14 | COc1ccc(C(=O)/C=C/Nc2ccc(S(=O)(=O)Nc3cccc(C(C)=O)c3)cc2)cc1 |  | active: 23.1 µM
15 | COc1ccc(-c2cc([C@H]3[C@@H]4C=CCC[C@@]4(C)C(=O)N3Cc3ccccc3)ccc2F)cc1OC |  | inconclusive: 25.9 µM [inhibitor, partial curve]
16 | Fc1cc(F)c(F)c(SCn2cc(Br)cn2)c1F | inactive: 14.2% | 
17 | CCOc1ccccc1NC(=O)C(=O)N/N=C/c1cc(Br)ccc1O |  | inconclusive: 4.61 µM [inhibitor, single point]
18 | CC(C#N)N1CCN(S(=O)(=O)c2ccc3c(c2)CCC3)CC1 (centres undefined) | inactive: 3.44% | 
19 | CC(C)Nc1nnc(SC(C)C(=O)NCc2ccc3c(c2)OCO3)s1 (centres undefined) | inactive: 1% | 
20 | CC1CCCN(c2ccc3nc4ccccc4c(=O)n3n2)C1 (centres undefined) |  | inconclusive: 0.411 µM [activator, full curve]
21 | C1CCc2c(nc3nnnn3c2N2CCOCC2)C1 | inactive: 13.6% | 
22 | COc1ccccc1NC(=O)C1CCCN(c2nc(C)cc(C)n2)C1 (centres undefined) |  | inconclusive: 29.1 µM [inhibitor, partial curve, poor fit]
23 | CCOC(=O)C1CCCN(C(=O)CN2C(=O)/C(=C/c3ccc(OC)cc3)Oc3ccccc32)C1 (centres undefined) |  | active: 23.1 µM
24 | O=C(c1ccc(Cl)cc1)N1CCC(O)(CSc2ccc(Cl)cc2Cl)CC1 |  | inconclusive: 23.1 µM [inhibitor, single point]
25 | COC(=O)c1ccc(NC(=S)NC(=O)c2cc(-c3ccccc3)nc3ccccc23)cc1 |  | inconclusive: 16.4 µM [inhibitor, partial curve, poor fit]

Row | Structure (SMILES) | activity change, negative = inhibition | Potency
26 | CN(C)S(=O)(=O)c1ccc(Cl)c(C(=O)Nc2cccc3ncccc23)c1 | inactive: -14.5% | 
27 | CC12CCC(=O)C=C1CCC1C2C(=O)CC2(C)C1CC[C@]2(O)C(=O)CO (some centres undefined) | inactive: -13.1% | 
28 | CC(=O)C1=C(O)C(=O)N(C)C1c1ccccc1[N+](=O)[O-] (centres undefined) | inactive: -0.627% | 
29 | Cc1ccc(-n2c(CNc3ccc(F)cc3)nnc2SCC(=O)NCc2ccco2)cc1 | inactive: -1.37% | 
30 | CNc1nnc(-c2cc3ccccc3oc2=O)s1 |  | inconclusive: 20.6 µM [activator, partial curve]
31 | COc1ccc(CN2CN=C(Nc3nc4ccccc4s3)NC2)cc1 | inactive: 1.75% | 
32 | COc1ccc2c(c1)C(=C(C#N)C#N)C(=O)N2CCc1ccccc1 |  | inconclusive: 23.1 µM [activator, partial curve, poor fit]
33 | CCc1cc2cc(C(=O)N3CCN(c4ccccc4)CC3)sc2s1 | inactive: 0.0579% | 
34 | COC(=O)c1cc(O)cc(OC)c1Oc1cc(C)cc(O)c1C(=O)O |  | inconclusive: 29.1 µM [inhibitor, single point]
35 | O=C(N/N=C/c1cccc(Oc2ccccc2)c1)c1cccc(Br)c1 |  | inconclusive: 31.6 µM [inhibitor, single point]
36 | CC(C)NC(=S)N/N=C/c1cc(Br)ccc1O | inactive: -8.11% | 
37 | COc1ccccc1N1CCN(Cc2cc(OC)c3c(c2)OCO3)CC1 |  | inconclusive: 16.4 µM [inhibitor, partial curve, poor fit]
38 | Cc1ccc(C)c(C(C)NC(=S)NC2CCCCC2)c1 (centres undefined) | inactive: -9.26% | 
39 | O=C(CCCOc1ccccc1)Nc1cccc([N+](=O)[O-])c1 |  | inconclusive: 29.1 µM [activator, single point]
40 | COc1ccccc1NC(=O)Nc1nc(CC(=O)NCc2c(F)cccc2F)cs1 |  | inconclusive: 29.1 µM [inhibitor, single point]
41 | O=C1/C(=C/c2cccs2)CCC/C1=C\c1cccs1 |  | inconclusive: 10.3 µM [activator, partial curve]
42 | O=C(NCc1cccs1)c1cc2c(s1)-c1ccccc1OC2 | inactive: -2.96% | 
43 | C=CCC1(CC=C)CCCN1C(=O)c1cc(COc2ccc(-n3cncn3)cc2)on1 |  | inconclusive: 2.06 µM [inhibitor, partial curve]
44 | Cc1nn(-c2ccc(N3CCCCC3)nn2)c(C)c1CCC(=O)Nc1ccccc1F |  | inconclusive: 29.1 µM [inhibitor, single point]
45 | Cc1ccc(NC(=O)CC2SCCNC2=O)cc1[N+](=O)[O-] (centres undefined) |  | inconclusive: 29.1 µM [activator, single point]
46 | O=C(c1c(F)cccc1F)N1CCC(n2nnc3cc(C(F)(F)F)ccc32)CC1 |  | inconclusive: 29.1 µM [inhibitor, single point]
47 | O=c1[nH]c2ccc(Cl)cc2c(=O)n1Cc1ccco1 | inactive: 20% | 
48 | NS(=O)(=O)c1cccc(NC(=O)COC(=O)c2cc(-c3ccc(Cl)cc3)nc3ccccc23)c1 |  | inconclusive: 23.1 µM [inhibitor, single point]
49 | Brc1ccc(CSc2nnc3ccccn23)cc1 |  | inconclusive: 20.6 µM [activator, partial curve]

Part of the list above, reformatted.
Row,Structure (SMILES),"activity change, negative = inhibition",Potency
40,COc1ccccc1NC(=O)Nc1nc(CC(=O)NCc2c(F)cccc2F)cs1,,"inconclusive: 29.1 µM [inhibitor, single point]"
41,O=C1/C(=C/c2cccs2)CCC/C1=C\c1cccs1,,"inconclusive: 10.3 µM [activator, partial curve]"
42,O=C(NCc1cccs1)c1cc2c(s1)-c1ccccc1OC2,inactive: -2.96%,
